From the supplement of paper PMC4604168 (melanoma cell lines) come the findings set out here.

Structures are written as SMILES. The list shows a part of the results. Single values are uncertain, as repeats are few or missing.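 Imaging used 1,536-well plates; nuclei positive for cleaved PARP by antibody were divided by total DNA-stained nuclei to yield the apoptosis fraction. Doses for screening kept most cells viable, and cell lines differ markedly in resting and induced cleaved-PARP levels.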

In this test the test system is CBRC034 (line from a melanoma biopsy). Briefly: cleaved PARP positive nuclei fraction relative to DMSO control; melanoma cells; higher = more apoptosis. The conditions noted are these: library dose: low library concentration; 72 h.
Turning to `OCCn1cc(-c2cnc3nnn(Cc4ccc5ncccc5c4)c3n2)cn1` + C/C(O)=C(\C#N)C(=O)Nc1cc(Br)ccc1Br [LFM-A13] (first compound 1 µM, partner dose 2 µM), the “cleaved PARP positive nuclei fraction” value worked out at 100%.

For the compound `C[As](C)SC[C@H](NC(=O)CC[C@H](N)C(=O)O)C(=O)NCC(=O)O` [Darinaparsin] + O=C1NC(=O)/C(=C/c2ccc(-c3ccc(F)cc3O)o2)S1 [AS252424] (first compound 0.4 µM, partner dose 1 µM), the “cleaved PARP positive nuclei fraction” value came out at 110%.

`Nc1cccc2c1CN(C1CCC(=O)NC1=O)C2=O` (stereo unspecified) [lenalidomide] + Cc1cc(SCc2sc(-c3ccc(C(F)(F)F)c(F)c3)nc2C)ccc1OCC(=O)O [GW0742] (first compound 1 µM, partner dose 2 µM): the “cleaved PARP positive nuclei fraction” value is 88.1%.

In the case of `C/C(O)=C(\C#N)C(=O)Nc1cc(Br)ccc1Br` + CCCCCCCCCCCC1=C(O)C(=O)C=C(O)C1=O [Embelin] (first compound 2 µM, partner dose 1.2 µM), the “cleaved PARP positive nuclei fraction” value was found to be 77.2%.

Consider `Cc1cc(SCc2sc(-c3ccc(C(F)(F)F)c(F)c3)nc2C)ccc1OCC(=O)O` + Cn1cc(/C=C2\C(=O)Nc3cccnc32)c2ccccc21 [GW441756] (first compound 2 µM, partner dose 0.4 µM), for which the “cleaved PARP positive nuclei fraction” value turned out to be 46.2%.

`C[As](C)SC[C@H](NC(=O)CC[C@H](N)C(=O)O)C(=O)NCC(=O)O` [Darinaparsin] + Cc1cc([N+](=O)[O-])ccc1NS(=O)(=O)c1cc(Cl)ccc1Cl [FH535] (first compound 0.4 µM, partner dose 1 µM): the “cleaved PARP positive nuclei fraction” value is 218%.
